In publication PMC12500908:
No constants are given. Whether binding was seen depends on the method and setting. Binding seen in cells or lysates may run through a third protein. Here binding means that the protein was enriched with, or labelled near, the bait; the list need not be complete.

Amino acid sequences for entries named in this document (tags omitted).
UniProt Q86U44: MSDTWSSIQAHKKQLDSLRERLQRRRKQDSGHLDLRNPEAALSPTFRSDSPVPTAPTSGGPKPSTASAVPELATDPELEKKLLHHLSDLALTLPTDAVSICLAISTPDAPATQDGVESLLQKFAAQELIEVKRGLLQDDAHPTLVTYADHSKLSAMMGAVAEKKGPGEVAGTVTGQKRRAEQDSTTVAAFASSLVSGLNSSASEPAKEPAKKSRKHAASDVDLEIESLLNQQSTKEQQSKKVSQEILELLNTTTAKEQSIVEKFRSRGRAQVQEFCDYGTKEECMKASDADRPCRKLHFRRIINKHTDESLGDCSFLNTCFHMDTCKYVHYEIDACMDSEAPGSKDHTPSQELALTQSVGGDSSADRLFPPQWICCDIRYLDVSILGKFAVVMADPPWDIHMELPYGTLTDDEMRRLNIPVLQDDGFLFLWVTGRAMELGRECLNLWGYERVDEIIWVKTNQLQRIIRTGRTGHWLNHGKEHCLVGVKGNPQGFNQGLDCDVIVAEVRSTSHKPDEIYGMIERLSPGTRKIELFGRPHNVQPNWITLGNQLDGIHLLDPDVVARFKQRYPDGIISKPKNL
UniProt Q15172: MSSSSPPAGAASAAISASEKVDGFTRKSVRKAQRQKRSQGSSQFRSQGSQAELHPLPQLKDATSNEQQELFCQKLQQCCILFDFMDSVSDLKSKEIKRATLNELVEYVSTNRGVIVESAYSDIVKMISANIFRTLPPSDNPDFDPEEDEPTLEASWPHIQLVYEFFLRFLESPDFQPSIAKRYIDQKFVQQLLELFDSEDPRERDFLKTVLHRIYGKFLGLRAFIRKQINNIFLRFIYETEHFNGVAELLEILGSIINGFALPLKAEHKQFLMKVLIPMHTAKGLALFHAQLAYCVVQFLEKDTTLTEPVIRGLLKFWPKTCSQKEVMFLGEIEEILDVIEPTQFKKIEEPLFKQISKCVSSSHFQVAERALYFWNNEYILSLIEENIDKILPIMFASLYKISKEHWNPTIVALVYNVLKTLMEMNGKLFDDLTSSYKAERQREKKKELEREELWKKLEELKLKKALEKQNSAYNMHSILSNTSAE

Biological target: methyltransferase-like 3 (METTL3), overexpressed in 293T cells (UniProt Q86U44)
Experiment: affinity purification with mass spectrometry; Co-IP followed by mass spectrometry (Co-IP/MS) of protein extracts of METTL3-overexpressing 293T cells

With “protein phosphatase 2A (PP2A) B56α subunit, in 293T cells (from UniProt Q15172 1-486)” the binding was “binds”.
